Laboratory results published in PubChem BioAssay AID2685 (National Center for Advancing Translational Sciences (NCATS), 2010).
This is one part of the list. Shown are side measurements of this screen, not its main read-out; they come without a call. Most of these compounds were active or inconclusive in the main read-out, so they are no random draw. Potencies come from curve fits of mixed quality, noted in brackets.

Test: qHTS Assay for Lipid Storage Modulators in Drosophila S3 Cells;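 on cell number change: cells counted by Cell Tracker Red CMTPX staining in the red channel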
Details: BODIPY lipid droplet fluorescence, 18-24 h; for cell number change: measured here: cell count max response, cells fed with added oleic acid
Procedure, shortened: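 Drosophila S3 cells got compounds at several concentrations plus oleic acid (400 uM solution). Laser-scanning cytometry with 488 nm excitation read lipid droplets at 500-530 nm and cells at 575-640 nm. Percent activity was relative to 20 uM Triacsin C.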

[1] = measured here: lipid fluorescence (Fed channel) AC50, cells fed with added oleic acid
[2] = measured here: cell number channel AC50, cells fed with added oleic acid

| Structure (SMILES) | cell number change | AC50 [1] | AC50 [2] |
| --- | --- | --- | --- |
| N=c1c(C(=O)NCC2CCCO2)cc2c(=O)n3ccccc3nc2n1Cc1ccccc1Cl (stereo unspecified) | 0.19% | – | – |
| COc1cccc(-c2nc(CS(=O)CC(=O)NCCCOC(C)C)c(C)o2)c1 (stereo unspecified) | – | 6.51 µM [rising, single point] | – |
| Cc1ccc(S(=O)(=O)NC(=NC2CCCCC2)c2ccccc2)cc1 | 14.5% | – | – |
| COCCN(C(=O)COC(=O)c1cc(C)oc1C)c1c(N)n(Cc2ccccc2)c(=O)[nH]c1=O | – | – | 6.51 µM [rising, single point] |
| CCCn1c(N)c(C(=O)COC(=O)CNC(=O)c2ccccc2OCC)c(=O)[nH]c1=O | 37% | 23.1 µM [rising, partial curve, poor fit] | 29.1 µM [rising, single point] |
| COC(=O)c1cc(S(=O)(=O)NC2CCCCC2)cn1C | – | 29.1 µM [rising, partial curve, poor fit] | – |
| Cc1ccc2sc(NNC(=O)C3COc4ccccc4O3)nc2c1C (stereo unspecified) | -12.1% | 20.6 µM [falling, single point] | – |
| CC(/C=N/NC(=O)Cc1cccs1)=C\c1ccco1 | -34.4% | 23.1 µM [falling, single point] | 18.4 µM [falling, single point] |
| COc1ccc([N+](=O)[O-])cc1NC(=O)CSc1nc(C)cc(C)n1 | 9.26% | 0.58 µM [rising, single point] | – |
| c1ccc(OCCSc2nnnn2C2CCCCC2)cc1 | 72.3% | 2.31 µM [rising, single point] | 6.51 µM [rising, partial curve] |
| O=c1c2c3c(sc2n2cnnc2n1CCc1ccccc1)CCCC3 | – | 1.46 µM [rising, full curve] | 1.3 µM [rising, partial curve] |
| N=c1n(CCc2ccccc2)c2ccccc2n1Cc1ccccc1F | 6.3% | – | – |
| CCN(CC)Cc1c(C(=O)N/N=C/c2ccccn2)nnn1-c1nonc1N | 59% | 0.116 µM [falling, single point] | 29.1 µM [rising, single point] |
| CCCc1cc(Nc2cccc(OCC)c2)n2ncnc2n1 | -15.4% | 0.651 µM [falling, single point] | – |
| CC(C)(C)NC(=O)COC(=O)c1cc(Cl)ccc1[N+](=O)[O-] | -16.3% | 0.146 µM [falling, full curve] | – |
| O=C(Nc1ccon1)c1csc2ccccc12 | 11.9% | 2.06 µM [rising, partial curve, poor fit] | – |
| CC(NC(=O)Nc1cccc(F)c1)c1ccc2c(c1)OCO2 (stereo unspecified) | 30.6% | – | 8.91 µM [rising, partial curve] |
| COc1ccc(-c2c[n+]3c(n2-c2ccccc2)SCC3)cc1OC | -34.2% | 0.92 µM [falling, full curve] | 0.00461 µM [falling, full curve, poor fit] |

Single entries from the results shown:
`CC(C)(C)NC(=O)COC(=O)c1cc(Cl)ccc1[N+](=O)[O-]` | AC50 [1]: 0.146 µM [falling, full curve]
`CCN(CC)Cc1c(C(=O)N/N=C/c2ccccn2)nnn1-c1nonc1N` | AC50 [1]: 0.116 µM [falling, single point]

The listing continues:

| Structure (SMILES) | cell number change | AC50 [1] | AC50 [2] |
| --- | --- | --- | --- |
| O=C1CSc2ccc(S(=O)(=O)NCc3ccccc3)cc2N1 | 14.6% | – | – |
| Cc1cc(NS(=O)(=O)c2ccc(NC(=O)CCCOc3ccc(Cl)cc3)cc2)no1 | -62.3% | 0.116 µM [falling, single point] | 20.6 µM [falling, single point] |
| Cc1ccc(-c2noc(CN3CCN(C(c4ccccc4)c4ccccc4)CC3)n2)cc1 | -14.4% | 1.64 µM [falling, partial curve] | – |
| CN(Cc1ccccc1)C(=O)CN1C(=O)NC(C)(c2ccc(Cl)cc2)C1=O (stereo unspecified) | 14.9% | – | – |
| CCC(Oc1ccccc1)C(=O)N1CCN(CC)CC1 (stereo unspecified) | -53.7% | 29.1 µM [falling, single point] | 11.6 µM [falling, partial curve] |
| O=C(c1cc2ccccc2o1)N1CCN(c2cccc(Cl)c2)CC1 | – | 7.31 µM [rising, partial curve, poor fit] | – |
| Nc1nc(SCC(=O)Nc2ccc([N+](=O)[O-])cc2Br)n[nH]1 | 17.2% | 3.26 µM [rising, partial curve, poor fit] | – |
| Cc1cccc2cc(C3CC(c4ccco4)=NN3C(=O)CCC(=O)O)c(Cl)nc12 (stereo unspecified) | -16.8% | 0.103 µM [falling, full curve, poor fit] | 0.146 µM [falling, full curve, poor fit] |
| CCOc1ccc(NC(=O)COc2ccc3c(c2)OCO3)cc1 | 16.5% | – | – |
| COc1ccc(NC(=O)CSCC(=O)Nc2nnc(CC(C)C)s2)cc1 | – | 23.1 µM [rising, single point] | – |
| Cc1c(Br)c([N+](=O)[O-])nn1CC(=O)Nc1ccccn1 | -30.3% | – | – |
| Cc1cccc(C(=O)OCC(=O)NCCNC(=O)COC(=O)c2cccc(C)c2C)c1C | 18.4% | – | – |
| C#CCOCCOCCOCCNc1nc(N2CCN(C(=O)[C@H]([C@@H](C)O)n3cc(CCCCN)nn3)CC2)nc(N2CCN(C(=O)[C@H](CCCCN)n3cc(CC(C)O)nn3)CC2)n1 (stereo partly specified) | -18.8% | 0.116 µM [falling, full curve, poor fit] | – |
| Cc1ccc(Sc2nc3c(c(=O)[nH]c(=O)n3C)n2CCc2ccccc2)cc1 | 29.3% | 7.31 µM [rising, partial curve] | – |
| COc1ccc(-n2nc3c(N4CCC(C(=O)NCC(C)c5ccccc5)CC4)nnc(C)c3c2C)cc1 (stereo unspecified) | 0.763% | 2.31 µM [rising, partial curve] | 6.51 µM [rising, single point] |
| CCOC(=O)c1sc2nc(C)nc(NCc3ccc(Cl)cc3)c2c1C | 97.2% | 29.1 µM [rising, single point] | 29.1 µM [rising, single point] |
| N#Cc1ccc(CSc2nnc(-c3c[nH]c4ccccc34)n2-c2ccccc2)cc1 | 137% | 0.731 µM [falling, partial curve] | 2.59 µM [falling, single point] |
| CC(/C=N/n1c(COc2ccccc2)n[nH]c1=S)=C\c1ccccc1 | -50.6% | 18.4 µM [falling, single point] | 10.3 µM [falling, partial curve] |
